Data published in patent publication US20230323475A1, “TEST METHOD, OF DIVIDING BLASTIC PLASMACYTOID DENDRITIC CELL NEOPLASM (BPDCN) INTO SUBTYPES” (JAPANESE FOUNDATION FOR CANCER RESEARCH, priority 2016, published 2023).

Test system: BPDCN cell lines (CAL-1, PMDC05)
Test: Cell survival rate of BPDCN cell lines with HDAC and BCL2 family protein inhibitors
Assay type: cell-based
Settings: 1 nM to 10000 nM, 48 hours, not associated with presence or absence of MYC expression, FIG. 11
Source text: The cell lines used were 4 lines: BPDCN cell lines CAL-1 (MYC^+BPDCN; Non Patent Literature 11; obtained from Nagasaki University) and PMDC05 (MYC-BPDCN; Non Patent Literature 12; obtained from Niigata University), a positive control plasma cell neoplasm KMS12PE (obtained from JCRB Cell Bank) having the increased expression of MYC, and a negative control leukemia cell line K562 (obtained from JCRB Cell Bank) in which no MYC gene rearrangement was seen.
The CAL-1, PMDC05, or KMN12PE cells at 4000 cells/well or K562 at 1000 cells/well were inoculated to 96-well cell culture plates. […] The cell survival rates were measured using a cell growth assay kit using CTG reagent (Cell Titer-Glo, manufactured by Promega Corp.).
Agents effective for the growth suppression of BPDCN cell lines were further studied. The study was conducted on HDAC inhibitors, vorinostat (manufactured by Selleck Chemicals LLC) and panobinostat (manufactured by Selleck Chemicals LLC), and a BCL2 family protein inhibitor, venetoclax (manufactured by LKT Laboratories Inc.). Each inhibitor was added in the concentration of 1 nM to 10000 nM to the 4 cell lines described above. The survival rates of these cells were analyzed 48 hours later (FIG. 11). […] These agents have the possibility of serving as a therapeutic drug for BPDCN, for which the treatment options are limited at present.

Structure (SMILES): O=C(CCCCCCC(=O)Nc1ccccc1)NO [vorinostat]
- inhibitory effect on the BPDCN cell lines (survival rate): strong inhibitory effect
